# Construct, isoform or probe ends are uncertain for at least one entry. For some of these results: Negatives hold for the conditions tested.
# Amino acid sequences for entries named in this document (tags omitted).
# UniProt P08515, whole entry: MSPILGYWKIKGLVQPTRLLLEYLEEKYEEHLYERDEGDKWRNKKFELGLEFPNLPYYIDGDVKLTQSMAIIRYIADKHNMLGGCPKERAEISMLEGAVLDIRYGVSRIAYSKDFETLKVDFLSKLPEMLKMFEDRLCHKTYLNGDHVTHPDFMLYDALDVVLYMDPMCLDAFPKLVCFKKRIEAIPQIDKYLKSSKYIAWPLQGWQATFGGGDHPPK
# How the values were obtained:
# Experiment in all cases: EMSA
# [1] = system: GST-HcMYB2 (Hedychium coronarium); conditions: LightShift Chemiluminescent EMSA kit, 5% native PAGE, pH and temperature not stated (as in Tan et al., 2019), recombinant protein, protein details: N-terminal GST (pGEX-4T-1), label: biotin
# GST = GST (UniProt P08515); conditions: GST alone; LightShift Chemiluminescent EMSA kit, 5% native PAGE; pH and temperature not stated (as in Tan et al., 2019); recombinant protein; protein details: GST; label: biotin
# [2] = system: GST-HcMYB1 (Hedychium coronarium); conditions: 100-fold unlabeled probe reduced and 500-fold abolished the complex; LightShift Chemiluminescent EMSA kit, 5% native PAGE; pH and temperature not stated (as in Tan et al., 2019); recombinant protein; protein details: N-terminal GST (pGEX-4T-1); label: biotin
Sequence,binding result [1],binding result (GST),binding result [2],binding result ([1]; 100-fold unlabeled probe reduced and 500-fold abolished the complex)
TTCAACCAGATCAACCAATATATAACTCCTTAGCCCCTACCTAACCAGAC (double strand) [proHcTPS5 probe],binds,,,
CAAGCGACCACCAACGGTTGAGATCAATTTTTTCTTGATCTAACGGTTC (double strand) [proHcBSMT2 probe],,no binding,binds,binds
